Among the data in PMC11718114 are binding values, retold here.

By UniProt entry, the sequences of proteins in these tests, tags left out. Where a name states a change or a piece, a line headed by the entry shows the natural chain unless it says otherwise. Residues count along the entry.
UniProt P42336, residues 157-289: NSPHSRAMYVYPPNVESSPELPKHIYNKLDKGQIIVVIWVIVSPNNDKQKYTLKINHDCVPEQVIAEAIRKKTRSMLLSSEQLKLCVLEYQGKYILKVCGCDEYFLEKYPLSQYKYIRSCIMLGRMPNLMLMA
UniProt Q92963, residues 2-219: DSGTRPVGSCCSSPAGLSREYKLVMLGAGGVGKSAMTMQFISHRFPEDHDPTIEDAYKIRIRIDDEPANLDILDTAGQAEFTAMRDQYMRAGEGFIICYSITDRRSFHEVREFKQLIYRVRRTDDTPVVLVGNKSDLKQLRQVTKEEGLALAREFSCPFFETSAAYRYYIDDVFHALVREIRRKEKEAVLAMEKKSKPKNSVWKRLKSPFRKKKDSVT

Results are given in words; binding and its absence hold for the method and conditions named.

Assay [1] has as its target T1, PI3Kα: p110α(2-1068)W1057A/I1058A/F1059A + p85(322-600) (human) (UniProt P42336+P27986). As to the kind of experiment: condition: 300–500 μM RAS in the syringe, 30–50 μM PI3K in the cell; ITC; GMPPNP-bound RAS (300–500 μM) in the syringe, PI3K isoform or PI3Kα-RBD (30–50 μM) in the cell; 25 °C; 20 mM HEPES pH 7.4, 150 mM NaCl, 5 mM MgCl2, 1 mM TCEP; one set of sites; duplicates; both purified.

The target of assay [2] is PI3Kα-RBD, PIK3CA-RBD(157-289) (human) (UniProt P42336). Kind of assay: condition: 300–500 μM in the syringe into 30–50 μM in the cell; ITC; RAS GTPase (GMPPNP-bound, 300–500 μM) in the syringe, PI3K isoform or PI3Kα-RBD (30–50 μM) in the cell; 25 °C; 20 mM HEPES pH 7.4, 150 mM NaCl, 5 mM MgCl2, 1 mM TCEP; one set of sites; two replicates; both purified.
In assay [3] the target is T1, PI3Kα: p110α(2-1068)W1057A/I1058A/F1059A + p85(322-600) (human). Described as above.

For “RIT1(2-219) (from UniProt Q92963 2-219) (domain or fragment)”, the binding entry in assay [1] is on record as “no binding”.
For the substance “RIT1(2-219), GMPPNP-bound (from UniProt Q92963 2-219) (domain or fragment)”, the binding result in assay [2] and in assay [3] was “no binding” throughout.
